This is an account of results in article PMC7913854.

These are yes or no findings as the source states them, for the method shown. In cells and extracts the contact can be indirect. A result given as binding can be weak or reduced; the word gives no strength. Tags and fused reporters may be left off the sequences shown.

The target of the assay is T1, human TLR8-HA (hTLR8-HA) (human) (UniProt Q9NR97).
T1 sequence: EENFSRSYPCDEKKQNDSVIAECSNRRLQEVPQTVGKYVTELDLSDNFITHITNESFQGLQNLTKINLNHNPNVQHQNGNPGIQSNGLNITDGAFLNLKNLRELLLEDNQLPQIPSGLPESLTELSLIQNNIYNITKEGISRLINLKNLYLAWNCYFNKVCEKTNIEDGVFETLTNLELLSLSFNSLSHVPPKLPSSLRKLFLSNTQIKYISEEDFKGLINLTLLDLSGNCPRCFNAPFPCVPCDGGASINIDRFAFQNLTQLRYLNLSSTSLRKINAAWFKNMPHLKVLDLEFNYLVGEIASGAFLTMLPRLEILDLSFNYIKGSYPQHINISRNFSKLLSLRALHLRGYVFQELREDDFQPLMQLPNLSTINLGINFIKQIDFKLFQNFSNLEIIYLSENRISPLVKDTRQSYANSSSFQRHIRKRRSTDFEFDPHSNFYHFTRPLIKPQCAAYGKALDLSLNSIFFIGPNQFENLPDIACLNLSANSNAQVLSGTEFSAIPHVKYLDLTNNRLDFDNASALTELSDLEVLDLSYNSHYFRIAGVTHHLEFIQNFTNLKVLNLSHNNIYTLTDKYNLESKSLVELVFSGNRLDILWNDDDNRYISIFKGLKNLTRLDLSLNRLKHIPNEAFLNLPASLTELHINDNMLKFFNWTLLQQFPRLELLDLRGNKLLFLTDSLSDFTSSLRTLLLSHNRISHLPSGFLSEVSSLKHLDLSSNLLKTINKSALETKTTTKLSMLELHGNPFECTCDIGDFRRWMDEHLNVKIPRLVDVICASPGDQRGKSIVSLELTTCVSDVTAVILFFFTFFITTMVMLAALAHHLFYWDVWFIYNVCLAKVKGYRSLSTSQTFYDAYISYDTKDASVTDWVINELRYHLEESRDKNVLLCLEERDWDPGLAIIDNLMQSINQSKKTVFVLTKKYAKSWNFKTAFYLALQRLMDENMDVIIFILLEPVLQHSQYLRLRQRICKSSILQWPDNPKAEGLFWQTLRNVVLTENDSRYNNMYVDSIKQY
The assay can be described thus: co-IP.

Regarding Rhesus TLR4, FLAG-tagged (receptor), the binding entry is recorded as “binds”.

In the case of “C. atys (sooty mangabey) TLR4, FLAG-tagged (receptor)”, the binding result was “binds”.
